Source: article PMC9523645

The chains behind the UniProt entries cited, without tags or fusion partners.
UniProt Q8IWI9: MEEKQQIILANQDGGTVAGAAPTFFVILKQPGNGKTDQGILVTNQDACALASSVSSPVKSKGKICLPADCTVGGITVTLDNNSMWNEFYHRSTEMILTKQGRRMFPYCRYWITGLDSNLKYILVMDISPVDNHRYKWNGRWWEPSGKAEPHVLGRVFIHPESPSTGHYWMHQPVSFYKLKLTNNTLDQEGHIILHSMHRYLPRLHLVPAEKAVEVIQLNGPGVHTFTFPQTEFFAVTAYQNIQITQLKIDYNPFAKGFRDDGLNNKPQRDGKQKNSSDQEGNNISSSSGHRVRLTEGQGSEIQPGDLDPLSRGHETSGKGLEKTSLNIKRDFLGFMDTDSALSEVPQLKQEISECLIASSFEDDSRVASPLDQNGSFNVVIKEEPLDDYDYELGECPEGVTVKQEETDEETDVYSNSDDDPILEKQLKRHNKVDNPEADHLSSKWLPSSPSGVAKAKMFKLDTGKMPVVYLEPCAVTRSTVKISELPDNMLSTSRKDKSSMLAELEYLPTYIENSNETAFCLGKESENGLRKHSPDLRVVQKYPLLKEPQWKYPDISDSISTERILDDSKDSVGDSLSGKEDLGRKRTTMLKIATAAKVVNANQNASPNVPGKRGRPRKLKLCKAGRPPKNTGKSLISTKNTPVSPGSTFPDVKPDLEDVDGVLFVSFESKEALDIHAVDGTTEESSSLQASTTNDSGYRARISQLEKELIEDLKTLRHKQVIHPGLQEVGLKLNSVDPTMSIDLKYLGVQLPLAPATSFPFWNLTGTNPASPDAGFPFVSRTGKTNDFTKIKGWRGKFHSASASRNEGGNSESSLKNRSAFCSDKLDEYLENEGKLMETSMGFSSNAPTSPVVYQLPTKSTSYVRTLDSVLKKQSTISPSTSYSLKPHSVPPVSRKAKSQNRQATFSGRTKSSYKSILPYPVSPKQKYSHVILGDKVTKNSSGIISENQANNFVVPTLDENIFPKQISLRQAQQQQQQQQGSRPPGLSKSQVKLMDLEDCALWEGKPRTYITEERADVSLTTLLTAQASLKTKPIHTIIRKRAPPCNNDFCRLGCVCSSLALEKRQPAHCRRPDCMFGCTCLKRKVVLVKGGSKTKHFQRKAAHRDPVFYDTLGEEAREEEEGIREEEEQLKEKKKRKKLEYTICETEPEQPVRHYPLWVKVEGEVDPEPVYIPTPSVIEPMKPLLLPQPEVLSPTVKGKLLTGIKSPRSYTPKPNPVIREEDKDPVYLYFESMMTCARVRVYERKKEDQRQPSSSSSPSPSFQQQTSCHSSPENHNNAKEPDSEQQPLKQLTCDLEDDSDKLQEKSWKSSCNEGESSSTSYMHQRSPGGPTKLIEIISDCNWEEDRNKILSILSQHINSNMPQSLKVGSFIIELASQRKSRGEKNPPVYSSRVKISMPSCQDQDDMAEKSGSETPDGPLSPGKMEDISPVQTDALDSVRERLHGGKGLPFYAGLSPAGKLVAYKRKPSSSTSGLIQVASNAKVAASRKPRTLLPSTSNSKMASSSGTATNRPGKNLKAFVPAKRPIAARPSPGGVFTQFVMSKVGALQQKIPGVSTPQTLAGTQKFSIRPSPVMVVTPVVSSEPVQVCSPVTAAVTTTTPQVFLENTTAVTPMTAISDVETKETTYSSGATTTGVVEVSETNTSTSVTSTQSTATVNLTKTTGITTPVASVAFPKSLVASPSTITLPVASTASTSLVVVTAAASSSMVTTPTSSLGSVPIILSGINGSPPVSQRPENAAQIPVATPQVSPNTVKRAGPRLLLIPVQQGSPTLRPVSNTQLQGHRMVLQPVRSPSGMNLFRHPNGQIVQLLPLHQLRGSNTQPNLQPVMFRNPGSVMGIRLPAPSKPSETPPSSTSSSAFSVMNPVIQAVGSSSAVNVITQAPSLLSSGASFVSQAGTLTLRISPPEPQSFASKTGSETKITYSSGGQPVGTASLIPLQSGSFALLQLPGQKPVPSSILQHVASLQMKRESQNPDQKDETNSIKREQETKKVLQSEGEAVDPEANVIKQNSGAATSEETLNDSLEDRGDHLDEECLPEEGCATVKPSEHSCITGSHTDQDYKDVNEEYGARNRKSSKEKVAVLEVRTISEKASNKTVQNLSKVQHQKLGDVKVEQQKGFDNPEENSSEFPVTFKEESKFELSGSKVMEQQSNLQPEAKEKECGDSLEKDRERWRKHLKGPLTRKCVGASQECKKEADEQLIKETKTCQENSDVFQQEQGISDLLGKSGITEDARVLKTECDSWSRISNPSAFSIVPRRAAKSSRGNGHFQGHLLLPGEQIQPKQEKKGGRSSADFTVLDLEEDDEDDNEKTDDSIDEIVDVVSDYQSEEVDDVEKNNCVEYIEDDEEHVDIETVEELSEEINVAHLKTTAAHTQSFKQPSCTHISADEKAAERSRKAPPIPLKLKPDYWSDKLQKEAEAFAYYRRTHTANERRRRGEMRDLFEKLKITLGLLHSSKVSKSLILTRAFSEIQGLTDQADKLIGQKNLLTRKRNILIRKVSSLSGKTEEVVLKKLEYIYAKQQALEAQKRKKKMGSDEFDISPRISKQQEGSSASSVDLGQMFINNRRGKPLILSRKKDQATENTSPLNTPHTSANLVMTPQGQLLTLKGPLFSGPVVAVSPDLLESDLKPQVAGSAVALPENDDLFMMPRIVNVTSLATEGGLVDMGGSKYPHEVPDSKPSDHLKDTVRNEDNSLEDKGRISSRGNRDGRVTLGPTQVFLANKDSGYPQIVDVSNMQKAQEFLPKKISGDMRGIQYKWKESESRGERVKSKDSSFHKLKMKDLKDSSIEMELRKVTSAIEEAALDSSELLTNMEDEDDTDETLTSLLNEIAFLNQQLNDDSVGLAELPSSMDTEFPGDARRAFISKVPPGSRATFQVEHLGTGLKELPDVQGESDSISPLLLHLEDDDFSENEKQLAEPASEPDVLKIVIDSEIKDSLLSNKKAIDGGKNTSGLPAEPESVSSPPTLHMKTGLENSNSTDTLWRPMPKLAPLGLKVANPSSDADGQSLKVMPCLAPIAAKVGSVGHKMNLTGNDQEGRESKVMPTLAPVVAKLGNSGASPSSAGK
UniProt Q14186: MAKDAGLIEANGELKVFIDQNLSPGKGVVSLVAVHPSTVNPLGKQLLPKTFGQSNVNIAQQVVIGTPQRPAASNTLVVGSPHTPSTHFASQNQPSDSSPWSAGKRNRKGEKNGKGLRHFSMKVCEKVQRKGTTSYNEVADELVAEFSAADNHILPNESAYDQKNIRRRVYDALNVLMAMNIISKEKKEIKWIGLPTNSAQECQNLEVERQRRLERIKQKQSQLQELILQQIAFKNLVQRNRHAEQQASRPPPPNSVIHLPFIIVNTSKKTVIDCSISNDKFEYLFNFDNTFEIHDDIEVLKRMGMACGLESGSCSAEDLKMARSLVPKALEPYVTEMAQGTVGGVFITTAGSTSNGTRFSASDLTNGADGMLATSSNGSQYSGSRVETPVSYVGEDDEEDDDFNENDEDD

B1: PCGF6 (Polycomb group RING finger protein 6) (protein, UniProt Q9BYE7 1-350)
chain: MEGVAVVTAGSVGAAKTEGAAALPPPPPVSPPALTPAPAAGEEGPAPLSETGAPGCSGSRPPELEPERSLGRFRGRFEDEDEELEEEEELEEEEEEEEEDMSHFSLRLEGGRQDSEDEEERLINLSELTPYILCSICKGYLIDATTITECLHTFCKSCIVRHFYYSNRCPKCNIVVHQTQPLYNIRLDRQLQDIVYKLVINLEEREKKQMHDFYKERGLEVPKPAVPQPVPSSKGRSKKVLESVFRIPPELDMSLLLEFIGANEGTGHFKPLEKKFVRVSGEATIGHVEKFLRRKMGLDPACQVDIICGDHLLEQYQTLREIRRAIGDAAMQDGLLVLHYGLVVSPLKIT

What follows are molecules tested against SARS-CoV-2 Nsp6 with C-terminal mCherry (mCh)-FLAG (SARS-CoV-2) (UniProt P0DTD1) (assay: affinity purification with mass spectrometry).

Molecule	binding
MGA (MAX gene-associated protein) (from UniProt Q8IWI9 1-3065)	binds
TFDP1 (Transcription factor Dp-1) (from UniProt Q14186 1-410)	binds
B1	binds

These are yes or no findings as the source states them, for the method shown. In cells and extracts the contact can be indirect. These calls come from enrichment with a bait or labelling near it, and not all partners need be listed.
